Some entries share one result that the patent states for a list of compounds.
System: NSCLC cell lines
Assay: Uptake of fluorescein (iFluorT)-labeled cyclic oligonucleotides
Type: cell-based, human
Conditions: iFluorT-labeled oligonucleotides 25 nM, 24 hours post-transfection

Q: With “CS3M: mutant inactive control of CS3D, T-A base pair replacing G-C base pair at position 9 (SEQ ID NO. 6); unable to bind STAT3 (GATTTAAGGGAAATGCSCATTTCCC; cyclic decoy, mutant control, further chemistry not given here) [reference compound]” as the substance, how does the efficiency of transfection read?
A: > 90%
